# Reference: patent US12065471B2, “B*44 restricted peptides for use in immunotherapy against cancers and related methods” (Immatics Biotechnologies GmbH, priority 2018, dated 2024)
# Tested on: HLA molecules of primary tumor and normal tissue samples
# Test: Identification and quantitation of tumor associated peptides presented on the cell surface (HLA immunoprecipitation, label-free LC-MS)
# Set-up: species or system human
# Settings: HLA-B*44 positive normal (N=124) vs tumor samples (N=159), FIGS. 1A-1M
row,Substance,"over-presentation of peptide in cancer tissues (median MS signal intensities, detection frequency)"
1,EECDKAYSF (listed as Homo sapiens) [SEQ ID NO: 364],over-presentation
2,VEAATVSKW (listed as Homo sapiens) [SEQ ID NO: 225],over-presentation
3,QEILHGAVRF (listed as Homo sapiens) [SEQ ID NO: 253],over-presentation

# Same assay, conditions: cancer entities on which the peptide was found presented (HLA immunoprecipitation, LC-MS); abbreviations in table footnotes
row,Substance,Peptide Presentation on cancer entities
1,110 (EVEVGEVKSW; listed as Homo sapiens) [compound 110],HCC
2,396 (MELLFLDTF; listed as Homo sapiens) [compound 396],"CLL, NHL"
3,305 (AEKNRRDAETW; listed as Homo sapiens) [compound 305],"HNSCC, NSCLCsquam, OSCAR, UBC"
4,251 (DESADSEPHKY; listed as Homo sapiens) [compound 251],NHL
5,306 (RRHPSFKRF; listed as Homo sapiens) [compound 306],GBC
6,302 (EGEDAHLTQY; listed as Homo sapiens) [compound 302],NSCLCsquam
7,73 (GEGTLRLSW; listed as Homo sapiens) [compound 73],MEL
8,153 (IEIILLSGSL; listed as Homo sapiens) [compound 153],PACA
9,135 (QEIDRGQYI; listed as Homo sapiens) [compound 135],MEL
10,63 (YEQVLFGF; listed as Homo sapiens) [compound 63],CLL
11,342 (SENKKWVEF; listed as Homo sapiens) [compound 342],"CLL, CRC, NHL, NSCLCsquam"
12,361 (EDASLMGLY; listed as Homo sapiens) [compound 361],GBM
13,77 (QETLAESTW; listed as Homo sapiens) [compound 77],NHL
14,122 (GESVSWHLF; listed as Homo sapiens) [compound 122],HNSCC
15,238 (VEDDNYKLSL; listed as Homo sapiens) [compound 238],"BRCA, CLL"
16,408 (AFSLLSAAFY; listed as Homo sapiens) [compound 408],NSCLCsquam
17,415 (EEAGFPLAY; listed as Homo sapiens) [compound 415],HNSCC
18,452 (NEVDGEYRY; listed as Homo sapiens) [compound 452],"BRCA, CCC, CRC, GBC, GC, HCC, HNSCC, MEL, NHL, NSCLCadeno, NSCLCsquam, OC, OSCAR, PACA, PRCA, RCC, UBC, UEC"
19,344 (DEIRVFGY; listed as Homo sapiens) [compound 344],HCC
20,436 (AEADLSYTWDF; listed as Homo sapiens) [compound 436],MEL
21,231 (AEALVDGKWQEF; listed as Homo sapiens) [compound 231],UBC
22,188 (AEFVPKADLL; listed as Homo sapiens) [compound 188],NSCLCsquam
23,414 (AEGYLDLDGI; listed as Homo sapiens) [compound 414],NSCLCadeno
24,108 (QETNKVETY; listed as Homo sapiens) [compound 108],OSCAR
25,37 (IEQGRVVLW; listed as Homo sapiens) [compound 37],"GBC, NHL"

row,Substance,Peptide Presentation on cancer entities
1,353 (AETEEGIYW; listed as Homo sapiens) [compound 353],HNSCC
2,65 (SESMVESKF; listed as Homo sapiens) [compound 65],"MEL, NSCLCadeno"
3,270 (VLRPPGSSW; listed as Homo sapiens) [compound 270],UBC
4,39 (AEAMGKFKQCF; listed as Homo sapiens) [compound 39],UEC
5,40 (REVDPDDSYVF; listed as Homo sapiens) [compound 40],MEL
6,68 (NEIDIHSIYF; listed as Homo sapiens) [compound 68],OSCAR
7,216 (AGSPVMRKW; listed as Homo sapiens) [compound 216],NSCLCsquam
8,175 (NLKSPIPLW; listed as Homo sapiens) [compound 175],"GBM, MEL, PACA, UBC"
9,106 (SVISDSPRSW; listed as Homo sapiens) [compound 106],OSCAR
10,382 (SELNPLALY; listed as Homo sapiens) [compound 382],HNSCC
11,281 (HEIPQESL; listed as Homo sapiens) [compound 281],"NSCLCsquam, OSCAR"
12,43 (SEKIVYVY; listed as Homo sapiens) [compound 43],HCC
13,79 (TEAQRLDCW; listed as Homo sapiens) [compound 79],MEL
14,449 (RENDFEPKF; listed as Homo sapiens) [compound 449],NHL
15,8 (ELMEVDPIGHLY; listed as Homo sapiens) [compound 8],OSCAR
16,246 (HEHGLFNLY; listed as Homo sapiens) [compound 246],MEL
17,52 (EDNPSGHTY; listed as Homo sapiens) [compound 52],"GBC, NHL"
18,265 (EDNLIHKF; listed as Homo sapiens) [compound 265],"GBC, HNSCC, OC, PACA"
19,427 (AEMLGSVVGNW; listed as Homo sapiens) [compound 427],NSCLCadeno
20,134 (IEIKDRLQL; listed as Homo sapiens) [compound 134],CLL
21,179 (EEHIFSAF; listed as Homo sapiens) [compound 179],"NHL, NSCLCsquam, OSCAR"
22,49 (SEYVHSSF; listed as Homo sapiens) [compound 49],BRCA
23,359 (NEFRRKLTF; listed as Homo sapiens) [compound 359],SCLC
24,70 (AEAEEAMKRL; listed as Homo sapiens) [compound 70],HNSCC
25,167 (AETENRYCV; listed as Homo sapiens) [compound 167],PACA

row,Substance,Peptide Presentation on cancer entities
1,277 (VEFPATRSL; listed as Homo sapiens) [compound 277],AML
2,12 (KEVDPTGHSF; listed as Homo sapiens) [compound 12],"GBC, MEL"
3,54 (QEISAHRTEF; listed as Homo sapiens) [compound 54],CLL
4,58 (KEMDPSRQSY; listed as Homo sapiens) [compound 58],HCC
5,240 (MELQVSSGF; listed as Homo sapiens) [compound 240],CLL
6,417 (EESFRCLPEW; listed as Homo sapiens) [compound 417],NHL
7,180 (EEHSSKLQTSL; listed as Homo sapiens) [compound 180],UBC
8,158 (VEEERYTGQW; listed as Homo sapiens) [compound 158],UBC
9,425 (KEVDPASNTY; listed as Homo sapiens) [compound 425],OSCAR
10,148 (KESDAGRYY; listed as Homo sapiens) [compound 148],"CLL, NHL"
11,441 (QEVAQVASAIL; listed as Homo sapiens) [compound 441],"CCC, NSCLCsquam, UBC"
12,69 (DENIQKFIW; listed as Homo sapiens) [compound 69],"HNSCC, UBC"
13,168 (EEGPSVPKIY; listed as Homo sapiens) [compound 168],"CLL, NHL"
14,182 (EELHAALSEW; listed as Homo sapiens) [compound 182],"CRC, GBC, GC"
15,381 (QELMAFSFAGL; listed as Homo sapiens) [compound 381],OSCAR
16,261 (QEWDPQKTEKY; listed as Homo sapiens) [compound 261],"CCC, UEC"
17,308 (EEPKIDFRVY; listed as Homo sapiens) [compound 308],"BRCA, CCC, CRC, HNSCC, MEL, NSCLCadeno, NSCLCsquam, OC, OSCAR, PACA, PRCA, RCC"
18,309 (SDDLRNVTW; listed as Homo sapiens) [compound 309],"BRCA, NSCLCadeno"
19,365 (NESGKAFNY; listed as Homo sapiens) [compound 365],"BRCA, CCC, CLL, CRC, GBM, GC, HCC, HNSCC, MEL, NHL, NSCLCadeno, NSCLCsquam, OC, OSCAR, PACA, PRCA, RCC, UBC, UEC"
20,356 (TEAVLNRY; listed as Homo sapiens) [compound 356],"GC, NSCLCsquam, OSCAR"
21,57 (SEATHIITI; listed as Homo sapiens) [compound 57],"AML, PACA"
22,401 (VENIFHNF; listed as Homo sapiens) [compound 401],"BRCA, GC, HCC, MEL, NSCLCadeno, NSCLCsquam, OSCAR"
23,384 (LDGIPTAGW; listed as Homo sapiens) [compound 384],"CLL, NHL"
24,96 (MDELEEGESY; listed as Homo sapiens) [compound 96],NHL
